Test results as given in patent US20100104614A1, “PROVIDONE COMPOSITIONS FOR WOUND HEALING” (priority 2008, published 2010).

Assay: Treatment of non-healing skin excision wound after melanoma removal (Example 2)
Type: in vivo, human
Conditions: dressing changes, topical antibiotics and oral Keflex tablets
Excerpt: A diabetic person with a melanoma on their back had the cancer surgically removed. The resulting excision wound measured approximately 3.0 cm×3.0 cm, and extended into the dermis.
Approximately one tablespoon of povidone powder was applied several times a day. Within one day, the wound began to granulate. After one week of treatment, the wound was completely healed.

## CC1=C(C(=O)O)N2C(=O)[C@@H](NC(=O)[C@H](N)c3ccccc3)[C@H]2SC1 [Keflex]
  wound healing outcome of prior treatment: without improvement
